{
  "source": "PubChem BioAssay AID504467",
  "about": "(National Center for Advancing Translational Sciences (NCATS), 2011)",
  "note": "About 7,700 (2.3%) of roughly 330,000 compounds were called active. Inconclusive results, whose numbers are uncertain, are shown with a selection of clear calls. Calls come from the whole dose curve; as a rule, active = well fitted inhibition curve with a large enough effect; inconclusive = small, poorly fitted or top-dose-only effect, or effect the other way; inactive = flat fitted curve, though single readings scatter. Potencies beside an inconclusive call are fits to weak or partial responses and may not hold up. % is set by controls: 0 for no effect and ±100 for the full control effect; potency is the fitted concentration of half-maximal effect.",
  "data": [
    {"experiment": "qHTS screen for small molecules that inhibit ELG1-dependent DNA repair in human embryonic kidney (HEK293T) cells expressing luciferase-tagged ELG1; note: nearly all actives have a fitted effect of over 55% in size", "conditions": "HEK293T ELG1-luciferase reporter, luminescence, 16 h, DNA damage induced by 5-fluorouridine; activity change, negative = inhibition: at 46.1 µM (top of the series)", "procedure,_shortened": "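In this reporter screen, reduction of luminescence relative to DMSO vehicle indicated activity. Compounds and 5-fluorouridine were added together to 2,000 cells per well, incubated for 16 hr at 37 °C, then developed with ONE-Glo.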", "values": [
      {"smiles": "Cc1cccc(C)c1N(CC(=O)N1CCN(c2ccccc2F)CC1)S(C)(=O)=O", "activity change, negative = inhibition": "inactive: -7.06%"},
      {"smiles": "O=C(/C=C/c1ccccc1[N+](=O)[O-])NCc1ccncc1", "activity change, negative = inhibition": "inactive: 7.96%"},
      {"smiles": "CN(C)S(=O)(=O)c1cccc(-c2nn(-c3ccccc3)cc2/C=C(\\C#N)c2nc3ccccc3[nH]2)c1", "Potency": "active: 2.59 µM"},
      {"smiles": "O=C(CSc1ccc(Cl)cc1)Nc1ncccn1", "Potency": "inconclusive: 20.6 µM [activator, single point]"},
      {"smiles": "CCS(=O)(=O)c1ccccc1C(=O)NC1CCCc2ccccc21", "note": "(stereo not drawn)", "activity change, negative = inhibition": "inactive: -2.79%"},
      {"smiles": "CCc1ccc(NC(=O)c2cnc3scc(C)n3c2=O)cc1", "Potency": "inconclusive: 14.6 µM [activator, partial curve]"},
      {"smiles": "Cc1ccccc1C(=O)N1CCC(C(=O)Nc2ccccc2N2CCCC2)CC1", "Potency": "inconclusive: 9.2 µM [inhibitor, single point]"},
      {"smiles": "CCC(c1nnnn1CCc1ccccc1)N(Cc1ccco1)Cc1cc2c(C)ccc(C)c2[nH]c1=O", "note": "(stereo not drawn)", "Potency": "inconclusive: 16.4 µM [inhibitor, single point]"},
      {"smiles": "Cc1ccccc1[C@@]1(C)ON(c2ccccc2C(F)(F)F)C1=O", "Potency": "inconclusive: 29.1 µM [inhibitor, partial curve, poor fit]"},
      {"smiles": "Cc1occc1C(=O)N/N=C/c1ccc(OCc2ccccc2)cc1", "Potency": "inconclusive: 14.6 µM [activator, partial curve]"},
      {"smiles": "CC(C)c1ccc(-c2nc3ccccc3s2)cc1", "Potency": "inconclusive: 0.073 µM [activator, full curve]"},
      {"smiles": "O=C(C1CCN(S(=O)(=O)c2cccs2)CC1)N1CCCCC1", "Potency": "inconclusive: 13 µM [activator, partial curve]"},
      {"smiles": "CCc1ccccc1NC(=S)NN", "activity change, negative = inhibition": "inactive: -16.2%"},
      {"smiles": "CCN(c1ccccc1)S(=O)(=O)c1ccc(OC)c(NC(=O)Cc2ccc(F)cc2)c1", "activity change, negative = inhibition": "inactive: -18.2%"},
      {"smiles": "Cc1ccc(S(=O)(=O)/N=C(\\N)c2ccc(Cl)cc2)cc1", "Potency": "inconclusive: 7.3 µM [inhibitor, partial curve]"},
      {"smiles": "N/C(=N\\OC(=O)CCCOc1ccc(Cl)cc1Cl)c1ccncc1", "activity change, negative = inhibition": "inactive: -1.74%"},
      {"smiles": "O=C(c1ccccn1)C1CCCN(Cc2nc(Cc3cccc(F)c3)no2)C1", "note": "(stereo not drawn)", "Potency": "inconclusive: 29.1 µM [inhibitor, single point]"},
      {"smiles": "COc1ccc(NC(=O)Nc2ccccc2F)c(C)c1", "Potency": "inconclusive: 23.1 µM [activator, single point]"},
      {"smiles": "COc1ccc(/C(N)=N/OC(=O)c2cccs2)cc1", "Potency": "inconclusive: 2.59 µM [activator, full curve]"},
      {"smiles": "COc1cc(C2Nc3ccccc3C(=O)N2c2ccc3c(c2)OCCO3)ccc1OCC(C)C", "note": "(stereo not drawn)", "Potency": "inconclusive: 0.411 µM [activator, full curve, poor fit]"},
      {"smiles": "CCOc1ccccc1OCC(=O)NCc1ccco1", "Potency": "inconclusive: 16.4 µM [activator, single point]"},
      {"smiles": "COc1cc(SC)ccc1C(=O)Nc1nc2ccccc2[nH]1", "Potency": "inconclusive: 1.64 µM [inhibitor, full curve, poor fit]"},
      {"smiles": "CCN(CC(=O)NC(C)(C)C)C(=O)CN1c2cccc3cccc(c23)S1(=O)=O", "activity change, negative = inhibition": "inactive: -1.65%"},
      {"smiles": "Cc1onc(-c2ccccc2Cl)c1C(=O)Nc1ccc(S(=O)(=O)N2CCCC2)cc1", "activity change, negative = inhibition": "inactive: -12.3%"},
      {"smiles": "Cn1c(SCC(=O)NCc2ccco2)nnc1C1CCCC1", "activity change, negative = inhibition": "inactive: 20.2%"},
      {"smiles": "O=C(CCCCCCN1C(=O)c2ccccc2C1=O)Nc1nccs1", "Potency": "active: 16.4 µM"},
      {"smiles": "N#C/C(=N\\Nc1ccccc1)C(=N)N1CCCCC1", "Potency": "inconclusive: 8.2 µM [activator, partial curve]"},
      {"smiles": "O=C(O)c1ccccc1Nc1ccc([N+](=O)[O-])cc1", "Potency": "inconclusive: 16.4 µM [activator, partial curve]"},
      {"smiles": "c1cn2c(Nc3ccc4c(c3)OCCO4)c(-c3ccc(N4CCOCC4)cc3)nc2cn1", "Potency": "inconclusive: 14.6 µM [activator, partial curve]"},
      {"smiles": "Nc1nnc(-c2ccccc2[N+](=O)[O-])o1", "activity change, negative = inhibition": "inactive: 21.8%"},
      {"smiles": "CCC(C(=O)Nc1cccc(C(F)(F)F)c1)c1ccccc1", "note": "(stereo not drawn)", "activity change, negative = inhibition": "inactive: -10.4%"},
      {"smiles": "N#C/C(=C\\c1c(N2CCCCC2)nc2ccccn2c1=O)S(=O)(=O)c1ccccc1", "activity change, negative = inhibition": "inactive: -1.56%"},
      {"smiles": "O=C(NC(=S)NCC1CCCO1)c1ccccc1", "note": "(stereo not drawn)", "Potency": "inconclusive: 18.4 µM [activator, partial curve]"},
      {"smiles": "O=C(O)C(Cc1c[nH]c2ccccc12)N1Cc2ccccc2C1=O", "note": "(stereo not drawn)", "Potency": "inconclusive: 25.9 µM [activator, single point]"},
      {"smiles": "CCCC(C(=O)NCCC(C)C)N(Cc1ccccc1Cl)C(=O)c1snc(C(N)=O)c1N", "note": "(stereo not drawn)", "Potency": "inconclusive: 23.1 µM [inhibitor, single point]"},
      {"smiles": "O=C(Nc1ccon1)c1nc[nH]c1C(=O)N1CCN(c2ccccc2)CC1", "activity change, negative = inhibition": "inactive: 0.218%"},
      {"smiles": "CCC(C)NC(=O)c1cc(-c2ccc(OC)cc2)on1", "note": "(stereo not drawn)", "Potency": "inconclusive: 5.8 µM [activator, partial curve]"},
      {"smiles": "COc1cc(C(=O)NCC(c2cccs2)N2CCOCC2)cc(OC)c1OC", "note": "(stereo not drawn)", "Potency": "inconclusive: 20.6 µM [activator, single point]"},
      {"smiles": "Cc1onc(-c2ccccc2)c1C(=O)N(Cc1ccccc1)C(C)C", "activity change, negative = inhibition": "inactive: -11.5%"},
      {"smiles": "O=[N+]([O-])c1ccc(N/N=C/c2sc(N3CCOCC3)nc2-c2ccccc2)c(S(=O)(=O)Nc2ccc(Cl)cc2)c1", "Potency": "inconclusive: 2.59 µM [inhibitor, full curve]"},
      {"smiles": "COc1ccc(NC(=S)N(CCO)Cc2cc3c(C)cc(C)cc3[nH]c2=O)cc1", "Potency": "inconclusive: 10.3 µM [inhibitor, partial curve]"},
      {"smiles": "CC1CCN(C(=O)COc2ncnc3ccccc23)CC1", "Potency": "inconclusive: 14.6 µM [activator, partial curve, poor fit]"},
      {"smiles": "CN(Cc1ccccc1)c1nc2nonc2nc1N1CCCC(CN2CCCC2=O)C1", "note": "(stereo not drawn)", "Potency": "inconclusive: 29.1 µM [activator, partial curve, poor fit]"},
      {"smiles": "COC(=O)c1cc2c(ccn2-c2ccc(F)cc2)n1Cc1ccc(C#N)cc1", "Potency": "inconclusive: 23.1 µM [inhibitor, single point]"},
      {"smiles": "CCOC(=O)c1c(C)c(C(=O)Nc2ccc(N(C)C)cc2)c(C)n1CC", "activity change, negative = inhibition": "inactive: 0.437%"},
      {"smiles": "O=C(N/N=C/c1ccc(OC(=O)c2ccc3c(c2)OCO3)cc1)c1cncc(Br)c1", "activity change, negative = inhibition": "inactive: 20%"},
      {"smiles": "CC(=N\\NC(=O)c1ccc([N+](=O)[O-])cc1)/C(=N/O)C(=O)Nc1ccccc1", "Potency": "inconclusive: 23.1 µM [inhibitor, partial curve]"},
      {"smiles": "COc1ccc(-c2cn3c(C)c(C(=O)NCCN4CCOCC4)sc3n2)cc1", "activity change, negative = inhibition": "inactive: 1.81%"},
      {"smiles": "CCN(CC(=O)Nc1c(F)cccc1F)C(=O)c1nc2nccc(C)n2n1", "activity change, negative = inhibition": "inactive: 15%"},
      {"smiles": "Cc1nc(N2CCOCC2)nc(Oc2ccccc2)c1[N+](=O)[O-]", "Potency": "inconclusive: 20.6 µM [activator, partial curve]"},
      {"smiles": "C=C(C)C(=O)Oc1ccc(N2C(=O)CCC2=O)cc1", "Potency": "inconclusive: 29.1 µM [activator, single point]"},
      {"smiles": "COc1ccc(OCCC(=O)OCC(=O)NCc2ccco2)cc1", "activity change, negative = inhibition": "inactive: 10.1%"},
      {"smiles": "CCCCn1nnc(NC(=O)c2ccc(-c3cccc(Cl)c3)o2)n1", "activity change, negative = inhibition": "inactive: 11.1%"},
      {"smiles": "COc1ccccc1OCc1ccc(C(=O)c2ccccc2)cc1", "Potency": "inconclusive: 15.8 µM [activator, single point]"},
      {"smiles": "COc1cc(CCC(=O)OCC(=O)Nc2ccccc2F)cc(OC)c1OC", "Potency": "inconclusive: 20.6 µM [activator, single point]"},
      {"smiles": "COc1ccc(C(=O)NCCSc2ccccc2)cc1", "Potency": "inconclusive: 1.64 µM [activator, full curve]"},
      {"smiles": "COc1ccc(C(=O)OCC(=O)NCCc2ccc(F)cc2)cc1S(=O)(=O)N1CCOCC1", "Potency": "inconclusive: 29.1 µM [activator, single point]"},
      {"smiles": "O=[N+]([O-])c1ccc(N2CCN(c3ccc(O)cc3)CC2)c(Cl)c1", "Potency": "active: 23.1 µM"},
      {"smiles": "CCOc1ccc(-n2c(SCC(=O)Nc3cc(C)on3)nnc2-c2c[nH]c3ccccc23)cc1", "activity change, negative = inhibition": "inactive: -5.35%"},
      {"smiles": "COCc1cc(=O)[nH]c(/N=C(\\N)Nc2ccc(Oc3ccccc3)cc2)n1", "activity change, negative = inhibition": "inactive: -9.01%"},
      {"smiles": "Cc1ccc(S(=O)(=O)Oc2ccccc2/C=C2/SC(=O)NC2=O)cc1", "Potency": "inconclusive: 5.8 µM [inhibitor, full curve]"},
      {"smiles": "CCNC(=O)/C(C#N)=C/c1c(N2CCN(c3cccc(Cl)c3)CC2)nc2c(C)cccn2c1=O", "activity change, negative = inhibition": "inactive: -11.7%"},
      {"smiles": "Nc1nc(NCc2ccc(Cl)cc2)nc(NCCO)c1[N+](=O)[O-]", "Potency": "inconclusive: 13 µM [inhibitor, partial curve]"},
      {"smiles": "COc1cccc(-c2[nH]nc3c2C(c2ccc(C)o2)C(C#N)=C(N)O3)c1", "note": "(stereo not drawn)", "Potency": "inconclusive: 11.6 µM [activator, partial curve, poor fit]"},
      {"smiles": "CCN(CC)c1nc(=S)nc(NC(C)(C)C)[nH]1", "activity change, negative = inhibition": "inactive: 7.42%"},
      {"smiles": "O=C(O)CCNC(=O)OCC1c2ccccc2-c2ccccc21", "activity change, negative = inhibition": "inactive: -11.6%"},
      {"smiles": "COc1cccc(-c2nnc(-c3ccco3)o2)c1", "Potency": "inconclusive: 5.17 µM [activator, partial curve]"},
      {"smiles": "CCN(c1ccccc1)S(=O)(=O)c1ccc(C(=O)NC2CCN(Cc3ccccc3)CC2)cc1", "Potency": "inconclusive: 0.58 µM [inhibitor, full curve]"},
      {"smiles": "C=CCN1C(=O)C(C)(C)N(C(C)=O)c2ccccc21", "activity change, negative = inhibition": "inactive: -9.15%"},
      {"smiles": "CC1CCCCN1S(=O)(=O)c1ccc(C(=O)Nc2nnc(-c3ccccn3)o2)cc1", "note": "(stereo not drawn)", "Potency": "inconclusive: 23.1 µM [inhibitor, single point]"},
      {"smiles": "COc1cc(OC)c(C2=NOC(C(=O)NCc3ccc4c(c3)OCO4)C2)cc1Cl", "note": "(stereo not drawn)", "Potency": "inconclusive: 29.1 µM [inhibitor, single point]"},
      {"smiles": "Cc1ccc(NS(=O)(=O)c2ccc(CCC(=O)O)cc2)cc1", "Potency": "inconclusive: 0.708 µM [inhibitor, single point]"},
      {"smiles": "CCn1c(SCc2ccccc2)nnc1C1CCN(S(=O)(=O)c2ccc(OC)cc2)CC1", "Potency": "inconclusive: 35.5 µM [inhibitor, single point]"}
    ]}
  ]
}
